# Measured data: PubChem BioAssay AID1259405 (NCATS, 2018)
# Assay: 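Silenced genes that increase secreted GFP made by CHO cells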 (primary screen)
# Cell system: Chinese hamster CHO-K1 ovary cells with stable secreted eGFP expression
# Knock-down reagent: single siRNA against mouse genes, 0.8 pmol siRNA per well (2 µl of 400 nM stock)
# Time to read-out: 3 days
# Detection: 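Percent of the per-plate non-targeting control median for intracellular GFP per well by laser scanning cytometry and for cell viability by ATP luminescence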
# Direction: GFP, % of control: higher = more GFP per well, higher productivity; viability (ATP), % of control: higher = more viable cells (more ATP)
# Rule for the call: 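Called active when intracellular GFP, relative to negative control, is at or above 120%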
# In all, the deposit lists about 50,000 reagents; shown is an unselected part. Of all reagents, about 4,000 (8%) are marked active. 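Mouse siRNA library applied to hamster cells; one well for each siRNA.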 A number with no mark means an inactive call. Reagents against one gene are numbered here.
target,reagent no.,"GFP, % of control","viability (ATP), % of control"
Ddx11 (DEAD/H box helicase 11),1,90.9,62.8
Ddx11 (DEAD/H box helicase 11),2,81.1,63.1
Ddx11 (DEAD/H box helicase 11),3,84.8,110
Or2av9 (olfactory receptor family 2 subfamily AV member 9),1,114,60.7
Or2av9 (olfactory receptor family 2 subfamily AV member 9),2,58.9,48.4
Or2av9 (olfactory receptor family 2 subfamily AV member 9),3,101,72.5
Calm1 (calmodulin 1),1,120 (active),103
Calm1 (calmodulin 1),2,71.6,69.4
Upk3b (uroplakin 3B),1,38.5,41.8
Upk3b (uroplakin 3B),2,83,86.3
Upk3b (uroplakin 3B),3,54.8,78.4
Nmu (neuromedin U),1,147 (active),84.2
Nmu (neuromedin U),2,81.7,88.6
Nmu (neuromedin U),3,65.1,74
Hsd17b14 (hydroxysteroid (17-beta) dehydrogenase 14),1,61.2,56.7
Hsd17b14 (hydroxysteroid (17-beta) dehydrogenase 14),2,54.3,58.2
Hsd17b14 (hydroxysteroid (17-beta) dehydrogenase 14),3,52.3,53.2
Nfatc2,1,50.3,25.2
Nfatc2,2,65.3,81.8
Nfatc2,3,82.5,91.3
Or51l4 (olfactory receptor family 51 subfamily L member 4),1,83.2,71.6
Or51l4 (olfactory receptor family 51 subfamily L member 4),2,74.2,66.9
Or51l4 (olfactory receptor family 51 subfamily L member 4),3,58.9,73.5
B230219D22Rik (RIKEN cDNA B230219D22 gene),1,78.1,58
B230219D22Rik (RIKEN cDNA B230219D22 gene),2,70,81.4
B230219D22Rik (RIKEN cDNA B230219D22 gene),3,91.8,85.8
Sh2b1 (SH2B adaptor protein 1),1,81.4,71.7
Sh2b1 (SH2B adaptor protein 1),2,76.6,65.9
Sh2b1 (SH2B adaptor protein 1),3,76,97.6
B9d1 (B9 protein domain 1),1,47.4,55.1
B9d1 (B9 protein domain 1),2,73.3,84.7
B9d1 (B9 protein domain 1),3,86.3,38.1
Tprkb (Tp53rk binding protein),1,123 (active),65.2
Tprkb (Tp53rk binding protein),2,14,21.1
Tprkb (Tp53rk binding protein),3,85.8,108
Cyyr1 (cysteine and tyrosine-rich protein 1),1,112,106
Cyyr1 (cysteine and tyrosine-rich protein 1),2,25.3,50.3
Cyyr1 (cysteine and tyrosine-rich protein 1),3,129 (active),140

The list goes on, starting with the last 7 of the part before.
target,reagent no.,"GFP, % of control","viability (ATP), % of control"
B9d1 (B9 protein domain 1),3,86.3,38.1
Tprkb (Tp53rk binding protein),1,123 (active),65.2
Tprkb (Tp53rk binding protein),2,14,21.1
Tprkb (Tp53rk binding protein),3,85.8,108
Cyyr1 (cysteine and tyrosine-rich protein 1),1,112,106
Cyyr1 (cysteine and tyrosine-rich protein 1),2,25.3,50.3
Cyyr1 (cysteine and tyrosine-rich protein 1),3,129 (active),140
"Prl7b1 (prolactin family 7, subfamily b, member 1)",1,111,75.7
"Prl7b1 (prolactin family 7, subfamily b, member 1)",2,88.7,78
"Prl7b1 (prolactin family 7, subfamily b, member 1)",3,67.8,66.2
Zbtb41 (zinc finger and BTB domain containing 41),1,88.5,129
Zbtb41 (zinc finger and BTB domain containing 41),2,15.2,23.6
Zbtb41 (zinc finger and BTB domain containing 41),3,69.1,92
Gatd3a (glutamine amidotransferase like class 1 domain containing 3A),1,91.5,98.9
Gatd3a (glutamine amidotransferase like class 1 domain containing 3A),2,75.6,70
Gatd3a (glutamine amidotransferase like class 1 domain containing 3A),3,99.8,101
Dnajb1 (DnaJ heat shock protein family (Hsp40) member B1),1,69.6,87.3
Dnajb1 (DnaJ heat shock protein family (Hsp40) member B1),2,57.4,47.3
Dnajb1 (DnaJ heat shock protein family (Hsp40) member B1),3,81.2,127
"Pcdhgb7 (protocadherin gamma subfamily B, 7)",1,79.5,70.2
"Pcdhgb7 (protocadherin gamma subfamily B, 7)",2,90.2,82.9
"Pcdhgb7 (protocadherin gamma subfamily B, 7)",3,97.1,71.6
Or4c11c (olfactory receptor family 4 subfamily C member 11C),1,53.7,67.9
Or4c11c (olfactory receptor family 4 subfamily C member 11C),2,79.9,73.3
Or4c11c (olfactory receptor family 4 subfamily C member 11C),3,55.4,73.2
Spata2 (spermatogenesis associated 2),1,67.9,71.2
Spata2 (spermatogenesis associated 2),2,57,42.2
Spata2 (spermatogenesis associated 2),3,76.3,74.7
Limch1 (LIM and calponin homology domains 1),1,39.4,51
Limch1 (LIM and calponin homology domains 1),2,70.8,84.9
Limch1 (LIM and calponin homology domains 1),3,67.2,78.3
Dnm3 (dynamin 3),1,85.7,97
Dnm3 (dynamin 3),2,99.1,79.8
Trex2 (three prime repair exonuclease 2),1,89.5,96.2
Trex2 (three prime repair exonuclease 2),2,90.4,90.4
Trex2 (three prime repair exonuclease 2),3,30.5,53.2
Rpp21 (ribonuclease P 21 subunit),1,74.5,69.7
Rpp21 (ribonuclease P 21 subunit),2,55.7,72.5
Rpp21 (ribonuclease P 21 subunit),3,47.9,53.7
Dusp3,1,85,67.9
Dusp3,2,69.9,68.2
Dusp3,3,138 (active),85.4
"Polk (polymerase (DNA directed), kappa)",1,127 (active),89.9
"Polk (polymerase (DNA directed), kappa)",2,74.4,59.5
Cd7 (CD7 antigen),1,85.2,85.1
Cd7 (CD7 antigen),2,39.5,39
Lsm7,1,133 (active),88.8
Lsm7,2,49.1,52.2
Lsm7,3,81.3,80.2
Ccdc90b (coiled-coil domain containing 90B),1,74.8,78.6
Ccdc90b (coiled-coil domain containing 90B),2,80.9,112
Ccdc90b (coiled-coil domain containing 90B),3,60.7,76
Dscc1,1,70.1,81.1
Dscc1,2,59.3,51
Dscc1,3,83.7,68.9
